Test results: the supplement of paper PMC8728848
This is one part of the list.

Tests used:
Assay in all cases: glycan array binding signal (z-score within array); higher = stronger binding
Conditions in all cases: glycan notation: IUPAC condensed, linker removed
[1] = target: Gal(b1-3)GlcNAc(b1-6)[Gal(b1-3)]GalNAc
Procedure, shortened: (§1)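 Glycan array data were curated from 3228 arrays in the Consortium for Functional Glycomics database and kept only where the protein sequence was available. Glycan names were converted to IUPAC-condensed notation, and columns mapping to the same glycan were averaged. The binding signal is a within-array Z-score, averaged across arrays of the same protein sequence at different concentrations or buffers and across linkers. Negative Z-scores can be read as non-binding.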

Gal(b1-3)GlcNAc6S = target: Gal(b1-3)GlcNAc6S
Procedure, shortened: as §1

[2] = target: Gal(b1-3)[Fuc(a1-4)]GlcNAc
Procedure, shortened: as §1

[3] = target: Gal(b1-3)[Fuc(a1-4)]GlcNAc(b1-2)Man
Procedure, shortened: as §1

[4] = target: Gal(b1-3)[Fuc(a1-4)]GlcNAc(b1-2)Man(a1-3)[Gal(b1-3)[Fuc(a1-4)]GlcNAc(b1-2)Man(a1-6)]Man(b1-4)GlcNAc(b1-4)[Fuc(a1-6)]GlcNAc
Procedure, shortened: as §1

[5] = target: Gal(b1-3)[Fuc(a1-4)]GlcNAc(b1-3)Gal(b1-3)[Fuc(a1-4)]GlcNAc
Procedure, shortened: as §1

[6] = target: Gal(b1-3)[Fuc(a1-4)]GlcNAc(b1-3)Gal(b1-4)[Fuc(a1-3)]GlcNAc
Procedure, shortened: as §1

[7] = target: Gal(b1-3)[Fuc(a1-4)]GlcNAc(b1-6)GalNAc
Procedure, shortened: as §1

[8] = target: Gal(b1-3)[GlcNAc(b1-6)]GalNAc
Procedure, shortened: as §1

[9] = target: Gal(b1-3)[Neu5Ac(a2-6)]GalNAc
Procedure, shortened: as §1

[10] = target: Gal(b1-3)[Neu5Ac(a2-6)]GlcNAc(b1-4)Gal(b1-4)Glc
Procedure, shortened: as §1

[11] = target: Gal(b1-3)[Neu5Ac(b2-6)]GalNAc
Procedure, shortened: as §1

Gal(b1-4)Gal = target: Gal(b1-4)Gal
Procedure, shortened: as §1

[12] = target: Gal(b1-4)GalNAc(a1-3)[Fuc(a1-2)]Gal(b1-4)GlcNAc
Procedure, shortened: as §1

[13] = target: Gal(b1-4)GalNAc(b1-3)[Fuc(a1-2)]Gal(b1-4)GlcNAc
Procedure, shortened: as §1

Gal(b1-4)Glc = target: Gal(b1-4)Glc
Procedure, shortened: as §1

Gal(b1-4)Glc6S = target: Gal(b1-4)Glc6S
Procedure, shortened: as §1

Gal(b1-4)GlcNAc = target: Gal(b1-4)GlcNAc
Procedure, shortened: as §1

[14] = target: Gal(b1-4)GlcNAc(a1-6)Gal(b1-4)GlcNAc
Procedure, shortened: as §1

Gal(b1-4)GlcNAc(b1-2)Man = target: Gal(b1-4)GlcNAc(b1-2)Man
Procedure, shortened: as §1

[15] = target: Gal(b1-4)GlcNAc(b1-2)Man(a1-3)Man(b1-4)GlcNAc(b1-4)GlcNAc
Procedure, shortened: as §1

[16] = target: Gal(b1-4)GlcNAc(b1-2)Man(a1-3)[Gal(b1-4)GlcNAc(b1-2)Man(a1-6)]Man(b1-4)GlcNAc(b1-4)GlcNAc
Procedure, shortened: as §1

[17] = target: Gal(b1-4)GlcNAc(b1-2)Man(a1-3)[Gal(b1-4)GlcNAc(b1-2)Man(a1-6)]Man(b1-4)GlcNAc(b1-4)[Fuc(a1-6)]GlcNAc
Procedure, shortened: as §1

[18] = target: Gal(b1-4)GlcNAc(b1-2)Man(a1-3)[Gal(b1-4)GlcNAc(b1-2)Man(a1-6)][Gal(b1-4)GlcNAc(b1-4)]Man(b1-4)GlcNAc(b1-4)[Fuc(a1-6)]GlcNAc
Procedure, shortened: as §1

[19] = target: Gal(b1-4)GlcNAc(b1-2)Man(a1-3)[Gal(b1-4)GlcNAc(b1-2)Man(a1-6)][GlcNAc(b1-4)]Man(b1-4)GlcNAc(b1-4)[Fuc(a1-6)]GlcNAc
Procedure, shortened: as §1

[20] = target: Gal(b1-4)GlcNAc(b1-2)Man(a1-3)[GlcNAc(b1-2)Man(a1-6)]Man(b1-4)GlcNAc(b1-4)GlcNAc
Procedure, shortened: as §1

[21] = target: Gal(b1-4)GlcNAc(b1-2)Man(a1-3)[GlcNAc(b1-4)][Gal(b1-4)GlcNAc(b1-2)Man(a1-6)]Man(b1-4)GlcNAc(b1-4)GlcNAc
Procedure, shortened: as §1

[22] = target: Gal(b1-4)GlcNAc(b1-2)Man(a1-3)[Man(a1-6)]Man(b1-4)GlcNAc(b1-4)GlcNAc
Procedure, shortened: as §1

[23] = target: Gal(b1-4)GlcNAc(b1-2)Man(a1-6)Man(b1-4)GlcNAc(b1-4)GlcNAc
Procedure, shortened: as §1

[24] = target: Gal(b1-4)GlcNAc(b1-2)Man(a1-6)[GlcNAc(b1-2)Man(a1-3)]Man(b1-4)GlcNAc(b1-4)GlcNAc
Procedure, shortened: as §1

[25] = target: Gal(b1-4)GlcNAc(b1-2)Man(a1-6)[Man(a1-3)]Man(b1-4)GlcNAc(b1-4)GlcNAc
Procedure, shortened: as §1

[26] = target: Gal(b1-4)GlcNAc(b1-2)[Gal(b1-4)GlcNAc(b1-4)]Man(a1-3)[Gal(b1-4)GlcNAc(b1-2)Man(a1-6)]Man(b1-4)GlcNAc(b1-4)GlcNAc
Procedure, shortened: as §1

[27] = target: Gal(b1-4)GlcNAc(b1-2)[Gal(b1-4)GlcNAc(b1-4)]Man(a1-3)[Gal(b1-4)GlcNAc(b1-2)[Gal(b1-4)GlcNAc(b1-6)]Man(a1-6)]Man(b1-4)GlcNAc(b1-4)GlcNAc
Procedure, shortened: as §1

[28] = target: Gal(b1-4)GlcNAc(b1-2)[Gal(b1-4)GlcNAc(b1-4)]Man(a1-3)[GlcNAc(b1-4)][Gal(b1-4)GlcNAc(b1-2)Man(a1-6)]Man(b1-4)GlcNAc(b1-4)GlcNAc
Procedure, shortened: as §1

[29] = target: Gal(b1-4)GlcNAc(b1-2)[Gal(b1-4)GlcNAc(b1-4)]Man(a1-3)[GlcNAc(b1-4)][Gal(b1-4)GlcNAc(b1-2)[Gal(b1-4)GlcNAc(b1-6)]Man(a1-6)]Man(b1-4)GlcNAc(b1-4)GlcNAc
Procedure, shortened: as §1

[30] = target: Gal(b1-4)GlcNAc(b1-2)[Gal(b1-4)GlcNAc(b1-6)]Man(a1-6)[Gal(b1-4)GlcNAc(b1-2)Man(a1-3)]Man(b1-4)GlcNAc(b1-4)GlcNAc
Procedure, shortened: as §1

[31] = target: Gal(b1-4)GlcNAc(b1-2)[Gal(b1-4)GlcNAc(b1-6)]Man(a1-6)[Gal(b1-4)GlcNAc(b1-2)Man(a1-3)]Man(b1-4)GlcNAc(b1-4)[Fuc(a1-6)]GlcNAc
Procedure, shortened: as §1

[32] = target: Gal(b1-4)GlcNAc(b1-2)[Gal(b1-4)GlcNAc(b1-6)]Man(a1-6)[GlcNAc(b1-4)][Gal(b1-4)GlcNAc(b1-2)Man(a1-3)]Man(b1-4)GlcNAc(b1-4)GlcNAc
Procedure, shortened: as §1

[33] = target: Gal(b1-4)GlcNAc(b1-2)[Gal(b1-4)GlcNAc(b1-6)]Man(a1-6)[GlcNAc(b1-4)][Gal(b1-4)GlcNAc(b1-2)[Gal(b1-4)GlcNAc(b1-4)]Man(a1-3)]Man(b1-4)GlcNAc(b1-4)[Fuc(a1-6)]GlcNAc
Procedure, shortened: as §1

[34] = target: Gal(b1-4)GlcNAc(b1-3)Gal(b1-3)GalNAc
Procedure, shortened: as §1

[35] = target: Gal(b1-4)GlcNAc(b1-3)Gal(b1-3)GlcNAc
Procedure, shortened: as §1

[36] = target: Gal(b1-4)GlcNAc(b1-3)Gal(b1-4)Glc
Procedure, shortened: as §1

[37] = target: Gal(b1-4)GlcNAc(b1-3)Gal(b1-4)GlcNAc
Procedure, shortened: as §1

[38] = target: Gal(b1-4)GlcNAc(b1-3)Gal(b1-4)GlcNAc(b1-2)Man(a1-3)[Gal(b1-4)GlcNAc(b1-3)Gal(b1-4)GlcNAc(b1-2)Man(a1-6)]Man(b1-4)GlcNAc(b1-4)GlcNAc
Procedure, shortened: as §1

[39] = target: Gal(b1-4)GlcNAc(b1-3)Gal(b1-4)GlcNAc(b1-2)Man(a1-3)[Gal(b1-4)GlcNAc(b1-3)Gal(b1-4)GlcNAc(b1-2)Man(a1-6)]Man(b1-4)GlcNAc(b1-4)[Fuc(a1-6)]GlcNAc
Procedure, shortened: as §1

B1: Agalectin (Anopheles gambiae) (protein)
chain: MSNRPFTAKFPRYPENGDEVFIRGKLKDDAKSFSVNFCLPRPAQVAEHQTPPYIALHFKTIYDERDDTSRVVLNWKNLQWQQEEVLDNYWHVDRSQTFRVVFRLHEDCIKVFVNSVDHPPDYQFPVQLPLDQIESIELWDDVEHVEEISFRYDNGNSY
- glycan array binding signal (z-score) [1]: -1.37
- glycan array binding signal (z-score) (Gal(b1-3)GlcNAc6S): -1.14
- glycan array binding signal (z-score) [2]: -0.875
- glycan array binding signal (z-score) [3]: 1.44
- glycan array binding signal (z-score) [4]: 1.3
- glycan array binding signal (z-score) [5]: -0.675
- glycan array binding signal (z-score) [6]: -0.54
- glycan array binding signal (z-score) [7]: 1.05
- glycan array binding signal (z-score) [8]: 1.17
- glycan array binding signal (z-score) [9]: -0.11
- glycan array binding signal (z-score) [10]: -0.729
- glycan array binding signal (z-score) [11]: 0.408
- glycan array binding signal (z-score) (Gal(b1-4)Gal): -0.002
- glycan array binding signal (z-score) [12]: 0.003
- glycan array binding signal (z-score) [13]: -0.19
- glycan array binding signal (z-score) (Gal(b1-4)Glc): -0.265
- glycan array binding signal (z-score) (Gal(b1-4)Glc6S): -0.839
- glycan array binding signal (z-score) (Gal(b1-4)GlcNAc): -0.597
- glycan array binding signal (z-score) [14]: -0.597
- glycan array binding signal (z-score) (Gal(b1-4)GlcNAc(b1-2)Man): -0.365
- glycan array binding signal (z-score) [15]: 1.51
- glycan array binding signal (z-score) [16]: -0.853
- glycan array binding signal (z-score) [17]: -0.743
- glycan array binding signal (z-score) [18]: -0.173
- glycan array binding signal (z-score) [19]: -1.15
- glycan array binding signal (z-score) [20]: -1.21
- glycan array binding signal (z-score) [21]: -1.12
- glycan array binding signal (z-score) [22]: -0.542
- glycan array binding signal (z-score) [23]: -0.357
- glycan array binding signal (z-score) [24]: -0.688
- glycan array binding signal (z-score) [25]: -0.394
- glycan array binding signal (z-score) [26]: -0.892
- glycan array binding signal (z-score) [27]: -0.932
- glycan array binding signal (z-score) [28]: 0.333
- glycan array binding signal (z-score) [29]: -0.54
- glycan array binding signal (z-score) [30]: -0.747
- glycan array binding signal (z-score) [31]: 0.952
- glycan array binding signal (z-score) [32]: -0.792
- glycan array binding signal (z-score) [33]: -0.434
- glycan array binding signal (z-score) [34]: -0.424
- glycan array binding signal (z-score) [35]: 0.524
- glycan array binding signal (z-score) [36]: -0.006
- glycan array binding signal (z-score) [37]: -0.221
- glycan array binding signal (z-score) [38]: 0.999
- glycan array binding signal (z-score) [39]: 1.58
